This note sets out measurements from patent publication US20230073007A1, “SWITCHING BINDER, PREPARATION METHOD THEREFOR, AND PHARMACEUTICAL COMPOSITION, ASSAY KIT, AND ANTIGEN AND ANTIBODY ASSAY METHOD, EACH USING SAME” (OPTOLANE TECHNOLOGIES INC., priority 2019, published 2023).

Experiment [1] deals with HBsAg. Nature of the experiment: fluorescent peptide on immobilized protein (100 µg/mL coating).
The target in experiment [2] is HBsAg. As to the kind of experiment: fluorescence of labelled peptide (20 µM) on protein coated at 100 µg/mL on a solid support.

These are yes or no findings as the source states them, for the method shown.

VYYCFQGSHVPFTK (fluorescence-labeled in the fluorescence assays (dye and position not stated)) [switching binder of SEQ ID NO. 4 (L2)]: the binding entry in the experiment with HBsAg [1] and in the experiment with HBsAg [2] was “no binding (tested: 20 µM)” each time.

Take TYLEWYPQKPGQSPKLLIYK (fluorescence-labeled in the fluorescence assays (dye and position not stated)) [switching binder of SEQ ID NO. 3 (L1)]: the binding result with HBsAg [1] and with HBsAg [2] was “no binding (tested: 20 µM)” throughout.

SYWIHWVKQRPGQGLEWIGE (fluorescence-labeled in the fluorescence assays (dye and position not stated)) [switching binder of SEQ ID NO. 1 (H1)]: the binding entry with HBsAg [1] and in the experiment with HBsAg [2] was “no binding (tested: 20 µM)” throughout.

With VYYCAREPTGTGIYFDVWGK (fluorescence-labeled in the fluorescence assays (dye and position not stated)) [switching binder of SEQ ID NO. 2 (H2)], the binding entry in the experiment with HBsAg [1] and in the experiment with HBsAg [2] was “no binding (tested: 20 µM)” in each case.
